# The list shows only some results of the screen, not a fair sample: it gathers tests that were run many times, whatever their T/C, doses with no T/C, and many T/C values between a quarter and a half above the control. Other doses and runs of a compound stand elsewhere. T/C gives the treated animals as a percentage of the vehicle group. Some entries give survivors of the animals treated and no T/C: the source holds a T/C of zero for them, seemingly a mark for toxic or unscored doses. Some doses without a T/C left all or most animals alive at the check, yet need not have been tolerated: the source hardly ever lists a survival T/C far under the control, and the zero likely stands for such cases as well. Counts of survivors are from the toxicity check (mostly the fifth day) where no day follows; animals may have died later. Schedule codes are those of the source, taken here to give the interval after Q, in days (D) or hours (H), and the number of doses after X. Some doses were run more than once; their values stand side by side, smallest first. For survival time, this PubChem deposit counts one and a half times the control or more as active, and values a quarter to a half above the control carry no call in these data; other NCI protocols may use other cut-offs. Some T/C values are followed by the survivors on the day toxicity was checked, most often the fifth; where none is given, no animal had died by that day.
# Test system: CD2F1 mice, L1210 leukemia ip, survival T/C
# Experiment: NCI In Vivo Anticancer Drug Screen. Data for tumor model L1210 Leukemia (intraperitoneal) in CD2F1 (CDF1) mice
# Details: higher T/C = longer survival
# Method in brief: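 Vehicle-treated tumor-bearing mice served as controls (C) for compound-treated mice (T). Reported figure is T divided by C.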
# [1] = T/C endpoint: mean survival time, dose: 25.0 mg/kg/injection, schedule: Q04DX003 (ip), vehicle: saline
# [2] = T/C endpoint: mean survival time, dose: 100.0 mg/kg/injection, schedule: Q04DX003 (ip), vehicle: saline
# [3] = T/C endpoint: mean survival time, dose: 400.0 mg/kg/injection, schedule: Q04DX003 (ip), vehicle: saline with Tween-80
# [4] = T/C endpoint: median survival time, dose: 2.0 mg/kg/injection, schedule: Q01DX009 (ip), vehicle: saline + alcohol
smiles,measurement,setting,value
CC1CC(C)(O)CC(C(O)CC2CC(=O)NC(=O)C2)C1=O (centres undefined),T/C,"T/C endpoint: mean survival time, dose: 0.32 mg/kg/injection, schedule: Q01DX009 (ip), vehicle: saline",129 and 133 % of control
C=CC[n+]1ccccc1Cc1ccccc1,survivor count,"T/C endpoint: mean survival time, dose: 100.0 mg/kg/injection, schedule: Q01DX001 (ip), vehicle: saline",0 of 3
Nc1nc(=O)n(C2OC(CO)C(O)C2O)cc1F (centres undefined),T/C,"T/C endpoint: mean survival time, dose: 0.12 mg/kg/injection, schedule: Q03HX024 (ip), vehicle: saline",144 % of control
same,T/C,"T/C endpoint: mean survival time, dose: 1.0 mg/kg/injection, schedule: Q01DX009 (ip), vehicle: saline",132 % of control
same,T/C,"T/C endpoint: mean survival time, dose: 2.0 mg/kg/injection, schedule: Q04DX003 (ip), vehicle: saline",127 % of control
same,T/C,"T/C endpoint: mean survival time, dose: 4.0 mg/kg/injection, schedule: Q03HX016 (ip), vehicle: saline",132 % of control
same,T/C,"T/C endpoint: mean survival time, dose: 16.0 mg/kg/injection, schedule: Q03HX008 (ip), vehicle: saline",147 % of control
same,T/C,"T/C endpoint: mean survival time, dose: 16.0 mg/kg/injection, schedule: Q04DX003 (ip), vehicle: saline",147 % of control
same,T/C,"T/C endpoint: mean survival time, dose: 20.0 mg/kg/injection, schedule: Q03DX003 (ip), vehicle: saline",132 % of control
same,T/C,"T/C endpoint: mean survival time, dose: 32.0 mg/kg/injection, schedule: Q03HX024 (oral), vehicle: saline",126 % of control
same,T/C,"T/C endpoint: mean survival time, dose: 40.0 mg/kg/injection, schedule: Q03DX003 (ip), vehicle: saline",135 % of control
same,T/C,"T/C endpoint: mean survival time, dose: 64.0 mg/kg/injection, schedule: Q01DX009 (ip), vehicle: saline",140 % of control
same,survivor count,"T/C endpoint: mean survival time, dose: 64.0 mg/kg/injection, schedule: Q03HX008 (ip), vehicle: saline",4 of 10
same,survivor count,"T/C endpoint: mean survival time, dose: 64.0 mg/kg/injection, schedule: Q03HX024 (ip), vehicle: saline",4 of 10
same,survivor count,"T/C endpoint: mean survival time, dose: 75.0 mg/kg/injection, schedule: Q01DX008 (ip), vehicle: saline",4 of 10
same,T/C,"T/C endpoint: mean survival time, dose: 80.0 mg/kg/injection, schedule: Q03DX003 (ip), vehicle: saline",142 % of control
same,T/C,"T/C endpoint: mean survival time, dose: 128.0 mg/kg/injection, schedule: Q01DX009 (oral), vehicle: saline",135 % of control
same,survivor count,"T/C endpoint: mean survival time, dose: 128.0 mg/kg/injection, schedule: Q03HX008 (ip), vehicle: saline",8 of 10
same,survivor count,"T/C endpoint: mean survival time, dose: 128.0 mg/kg/injection, schedule: Q03HX024 (oral), vehicle: saline",2 of 10
same,survivor count,"T/C endpoint: mean survival time, dose: 150.0 mg/kg/injection, schedule: Q01DX008 (ip), vehicle: saline",7 of 10
same,survivor count,"T/C endpoint: mean survival time, dose: 150.0 mg/kg/injection, schedule: Q01DX008 (oral), vehicle: saline",4 of 10
same,survivor count,"T/C endpoint: mean survival time, dose: 200.0 mg/kg/injection, schedule: Q01DX009 (ip), vehicle: saline",6 of 6
same,T/C,"T/C endpoint: mean survival time, dose: 256.0 mg/kg/injection, schedule: Q01DX001 (ip), vehicle: saline",125 % of control
same,T/C,"T/C endpoint: mean survival time, dose: 256.0 mg/kg/injection, schedule: Q01DX001 (sc), vehicle: saline",138 % of control
same,T/C,"T/C endpoint: mean survival time, dose: 256.0 mg/kg/injection, schedule: Q03HX016 (ip), vehicle: saline",147 % of control [8 of 10 alive]
same,T/C,"T/C endpoint: mean survival time, dose: 256.0 mg/kg/injection, schedule: Q08DX002 (ip), vehicle: saline",127 % of control
same,T/C,"T/C endpoint: mean survival time, dose: 300.0 mg/kg/injection, schedule: Q01DX001 (ip), vehicle: saline",139 % of control
same,survivor count,"T/C endpoint: mean survival time, dose: 400.0 mg/kg/injection, schedule: Q01DX009 (ip), vehicle: saline",10 of 10 and 6 of 6
same,T/C,"T/C endpoint: mean survival time, dose: 512.0 mg/kg/injection, schedule: Q01DX001 (ip), vehicle: saline",146 % of control
same,survivor count,"T/C endpoint: mean survival time, dose: 512.0 mg/kg/injection, schedule: Q03HX024 (ip), vehicle: saline",8 of 10
same,T/C,"T/C endpoint: mean survival time, dose: 600.0 mg/kg/injection, schedule: Q01DX001 (oral), vehicle: saline",131 % of control
same,survivor count,"T/C endpoint: mean survival time, dose: 1024.0 mg/kg/injection, schedule: Q03HX016 (ip), vehicle: saline",6 of 10
same,T/C,"T/C endpoint: mean survival time, dose: 1200.0 mg/kg/injection, schedule: Q01DX001 (oral), vehicle: saline",145 % of control [9 of 10 alive]
c1ccc(CCN2CCCCC2)nc1,survivor count,"T/C endpoint: mean survival time, dose: 12.5 mg/kg/injection, schedule: Q04DX003 (ip), vehicle: saline with Tween-80",0 of 6
same,survivor count,[1],5 of 6
same,survivor count,"T/C endpoint: mean survival time, dose: 50.0 mg/kg/injection, schedule: Q04DX003 (ip), vehicle: saline",0 of 6
same,survivor count,[2],0 of 6
N=c1c2c(C(N)=O)cn(C3OC(CO)C(O)C3O)c2ncn1O (centres undefined),survivor count,"T/C endpoint: mean survival time, dose: 2.7 mg/kg/injection, schedule: Q01DX009 (ip), vehicle: saline",6 of 6
same,survivor count,"T/C endpoint: mean survival time, dose: 4.0 mg/kg/injection, schedule: Q01DX009 (ip), vehicle: saline",6 of 6
same,survivor count,"T/C endpoint: mean survival time, dose: 6.0 mg/kg/injection, schedule: Q01DX009 (ip), vehicle: saline",5 of 6
same,survivor count,"T/C endpoint: mean survival time, dose: 9.0 mg/kg/injection, schedule: Q01DX009 (ip), vehicle: saline",0 of 6 and 4 of 6
same,survivor count,"T/C endpoint: mean survival time, dose: 13.0 mg/kg/injection, schedule: Q01DX009 (ip), vehicle: saline",0 of 6
same,survivor count,"T/C endpoint: mean survival time, dose: 20.0 mg/kg/injection, schedule: Q01DX009 (ip), vehicle: saline",0 of 6
same,survivor count,"T/C endpoint: mean survival time, dose: 30.0 mg/kg/injection, schedule: Q01DX009 (ip), vehicle: saline",0 of 6
Nc1nc(N)c(N=Nc2cccc3ccccc23)c(N)n1,survivor count,"T/C endpoint: mean survival time, dose: 200.0 mg/kg/injection, schedule: Q01DX009 (ip), vehicle: water",6 of 6
same,survivor count,"T/C endpoint: mean survival time, dose: 400.0 mg/kg/injection, schedule: Q01DX009 (ip), vehicle: water",4 of 6
COC(=O)C1C2CCC(C2)C1C (centres undefined),survivor count,"T/C endpoint: mean survival time, dose: 200.0 mg/kg/injection, schedule: Q04DX003 (ip), vehicle: saline with Tween-80",6 of 6
same,survivor count,[3],2 of 6
CCCCS/C=C\C(=O)OCC,survivor count,"T/C endpoint: mean survival time, dose: 200.0 mg/kg/injection, schedule: Q04DX002 (ip), vehicle: saline with Tween-80",2 of 3
Cc1cc(N(CCOS(C)(=O)=O)CCOS(C)(=O)=O)ccc1C=Nc1ccc(C(=O)O)c(O)c1,T/C,"T/C endpoint: mean survival time, dose: 6.25 mg/kg/injection, schedule: Q01DX009 (ip), vehicle: saline with Tween-80",135 % of control
same,T/C,"T/C endpoint: mean survival time, dose: 9.0 mg/kg/injection, schedule: Q01DX009 (ip), vehicle: saline with Tween-80",135 % of control
same,survivor count,"T/C endpoint: mean survival time, dose: 25.0 mg/kg/injection, schedule: Q01DX009 (ip), vehicle: saline with Tween-80",2 of 6
CCOC(=O)C1(C(=O)OCC)CCC(O)N1C(=O)Cc1ccccc1[N+](=O)[O-] (centres undefined),T/C,"T/C endpoint: mean survival time, dose: 50.0 mg/kg/injection, schedule: Q01DX009 (ip), vehicle: Klucel (hydroxypropylcellulose) (HPC)",129 % of control [2 of 3 alive]
Cc1cccc2c1CCC(OC(=O)c1cc([N+](=O)[O-])cc([N+](=O)[O-])c1)C2 (centres undefined),survivor count,"T/C endpoint: mean survival time, dose: 100.0 mg/kg/injection, schedule: Q04DX003 (ip), vehicle: saline with Tween-80",6 of 6
same,survivor count,"T/C endpoint: mean survival time, dose: 200.0 mg/kg/injection, schedule: Q01DX009 (ip), vehicle: saline with Tween-80",6 of 6
same,survivor count,[3],6 of 6
CN(C)[C-]=O.[C-]#[O+].[C-]#[O+].[Fe+6].[c-]1[c-][c-][cH-][c-]1,survivor count,"T/C endpoint: mean survival time, dose: 300.0 mg/kg/injection, schedule: Q01DX001 (ip), vehicle: other",3 of 6
COC(=O)[C@@]12OC[C@]34[C@H]([C@@H](O)[C@@H]1O)[C@@]1(C)CC(=O)C(O)=C(C)[C@@H]1C[C@H]3OC(=O)[C@H](OC(=O)/C=C(\C)C(C)C)[C@@H]24,T/C,"T/C endpoint: mean survival time, dose: 2000.0 micrograms/kg/injection, schedule: Q01DX009 (ip), vehicle: saline + alcohol",125 % of control [5 of 6 alive]
same,survivor count,"T/C endpoint: mean survival time, dose: 4000.0 micrograms/kg/injection, schedule: Q01DX009 (ip), vehicle: saline + alcohol",3 of 6
same,T/C,"T/C endpoint: median survival time, dose: 0.5 mg/kg/injection, schedule: Q01DX009 (ip), vehicle: saline + alcohol",128 % of control
same,T/C,"T/C endpoint: median survival time, dose: 1.0 mg/kg/injection, schedule: Q01DX009 (ip), vehicle: saline + alcohol",126 and 141 % of control
same,T/C,[4],125 % of control
same,survivor count,[4],2 of 6
same,survivor count,"T/C endpoint: median survival time, dose: 4.0 mg/kg/injection, schedule: Q01DX009 (ip), vehicle: saline + alcohol",1 of 6
COc1cc2c3cc1Oc1c(OC)c(OC)cc4c1C(Cc1ccc(O)c(c1)Oc1ccc(cc1)CC3N(C)CC2)CN(C)C4 (centres undefined),survivor count,[3],0 of 6
C=CCSc1ncnc2c1cnn2C1OC(CO)C(O)C1O (centres undefined),survivor count,"T/C endpoint: mean survival time, dose: 200.0 mg/kg/injection, schedule: Q01DX005 (ip), vehicle: water",1 of 3
same,survivor count,"T/C endpoint: mean survival time, dose: 400.0 mg/kg/injection, schedule: Q01DX005 (ip), vehicle: water",2 of 3
CCCC(CC)(C[NH-])C[NH-].[Cl][Pt+2][Cl],T/C,[1],143 % of control
same,T/C,[2],135 % of control

# Reference: PubChem BioAssay AID256 (DTP/NCI, 2004)
